No constants are given. Whether binding was seen depends on the method and setting. In cells and extracts the contact can be indirect. These calls come from enrichment with a bait or labelling near it, and not all partners need be listed. Sequences can lack the tags named with a protein.

The chains behind the UniProt entries cited, without tags or fusion partners.
UniProt Q9EP97: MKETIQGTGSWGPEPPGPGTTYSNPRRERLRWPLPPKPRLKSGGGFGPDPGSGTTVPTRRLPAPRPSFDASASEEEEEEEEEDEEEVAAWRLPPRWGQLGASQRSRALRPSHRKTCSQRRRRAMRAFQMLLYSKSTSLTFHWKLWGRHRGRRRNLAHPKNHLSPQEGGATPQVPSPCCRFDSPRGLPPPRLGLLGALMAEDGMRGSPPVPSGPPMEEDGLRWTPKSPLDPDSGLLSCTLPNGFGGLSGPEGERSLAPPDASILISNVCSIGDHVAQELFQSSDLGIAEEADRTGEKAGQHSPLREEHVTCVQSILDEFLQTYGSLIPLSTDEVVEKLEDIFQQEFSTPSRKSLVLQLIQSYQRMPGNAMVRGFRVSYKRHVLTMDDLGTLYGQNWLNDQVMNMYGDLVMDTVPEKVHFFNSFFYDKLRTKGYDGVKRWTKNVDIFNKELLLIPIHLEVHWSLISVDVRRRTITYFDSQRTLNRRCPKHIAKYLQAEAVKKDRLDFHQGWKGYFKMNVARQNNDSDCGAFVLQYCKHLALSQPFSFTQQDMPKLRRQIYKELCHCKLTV
UniProt Q9DBD5: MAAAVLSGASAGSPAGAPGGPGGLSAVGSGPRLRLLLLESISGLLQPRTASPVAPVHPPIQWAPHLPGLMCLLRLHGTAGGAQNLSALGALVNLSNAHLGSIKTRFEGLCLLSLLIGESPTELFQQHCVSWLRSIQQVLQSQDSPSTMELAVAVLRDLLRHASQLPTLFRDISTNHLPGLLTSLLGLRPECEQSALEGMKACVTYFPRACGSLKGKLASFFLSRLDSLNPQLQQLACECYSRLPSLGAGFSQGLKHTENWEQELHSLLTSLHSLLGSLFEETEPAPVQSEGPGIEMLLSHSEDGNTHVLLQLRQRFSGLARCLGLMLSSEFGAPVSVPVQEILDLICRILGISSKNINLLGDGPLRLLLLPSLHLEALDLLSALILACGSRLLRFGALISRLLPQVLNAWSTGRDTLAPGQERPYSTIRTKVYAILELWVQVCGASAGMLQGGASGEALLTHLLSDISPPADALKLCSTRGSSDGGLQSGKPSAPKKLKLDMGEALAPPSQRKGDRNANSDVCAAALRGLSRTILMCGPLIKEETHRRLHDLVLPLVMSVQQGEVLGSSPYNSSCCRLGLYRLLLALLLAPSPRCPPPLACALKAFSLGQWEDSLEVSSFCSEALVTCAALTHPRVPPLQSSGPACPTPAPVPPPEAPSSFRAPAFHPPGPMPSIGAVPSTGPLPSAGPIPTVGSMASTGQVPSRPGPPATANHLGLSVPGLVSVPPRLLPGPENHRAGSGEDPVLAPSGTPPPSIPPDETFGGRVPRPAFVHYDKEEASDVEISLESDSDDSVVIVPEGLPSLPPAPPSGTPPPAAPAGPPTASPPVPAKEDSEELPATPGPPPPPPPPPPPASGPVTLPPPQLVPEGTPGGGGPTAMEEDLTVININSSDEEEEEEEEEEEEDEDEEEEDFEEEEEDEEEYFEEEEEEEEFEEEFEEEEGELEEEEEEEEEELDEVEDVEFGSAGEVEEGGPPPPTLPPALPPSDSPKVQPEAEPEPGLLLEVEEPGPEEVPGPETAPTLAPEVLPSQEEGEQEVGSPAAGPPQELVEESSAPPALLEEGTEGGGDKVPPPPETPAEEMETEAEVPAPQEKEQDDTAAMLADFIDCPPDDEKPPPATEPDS

Binding data for six molecules are collected here from paper PMC11801372.

The labels stand for the following.
T1: SPIC-green fluorescent protein (GFP) fusion protein (mouse) (UniProt Q6P3D7)
T1 sequence: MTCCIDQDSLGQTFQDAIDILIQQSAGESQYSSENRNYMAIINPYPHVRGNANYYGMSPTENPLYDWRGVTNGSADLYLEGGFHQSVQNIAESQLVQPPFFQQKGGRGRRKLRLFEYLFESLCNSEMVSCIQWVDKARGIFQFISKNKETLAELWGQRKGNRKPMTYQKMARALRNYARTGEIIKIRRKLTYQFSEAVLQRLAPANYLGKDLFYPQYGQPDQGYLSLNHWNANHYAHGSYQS

B1: ZFP609 (Zinc finger protein 609) (protein, UniProt Q8BZ47 1-1413)
chain: MSLSSGACGGKGVDANPVETYDSGDEWDIGVGNLIIDLDADLEKDQQKLEMSGSKEVGIPAPNAVATLPDNIKFVTPVPGPQGKEGKSKSKRSKSGKDASKPTPGTSLFSPSEGAASKKEVQGRAGDGASAGGLVAAVAPKGSEKAAKASRSVAGSKKEKENSSSKGKKERSEGVGTCSEKDPGVLQPVPLGGRGSQYDGSAGMDTGTVEPLGSIAIEPGAALNPLGTKPEPEEGENECRPLKKVKSEKMESPVSTPAVLPLHLLVPVVNNDISSPCEQIMVRTRSVGVNTCDVALATEPECLGPCEPGTSVNLEGIVWQETEDGMLVVNVTWRNKTYVGTLLDCTRHDWAPPRFCDSPTSDLEMRNGRGRGKRMRPSSNTPVSEAAAASDSKGTSSSSKTRAGANSKGRRGSQNSSEHRPPASSTSEDVKASPSSANKRKSKPLSDMELNSSSEDSKGSKRVRTNSMGSATGPLPGTKVEPTLVDRNCPSPVLIDCPHPNCNKKYKHINGLKYHQAHAHTDDDSKPEADGDSEYGEEPALHADLSCNGAPVPQKGSLSPARSATPKVRLVEPHSPSPSSKFSTKGLCKKKLSGEGDTDPGALSNDGSDDGPSVMDETSNDAFDSLERKCMEKEKCKKPSSLKSEKIPSKSLKSARPIAPAIPPQQIYTFQTATFTAASPGSSSGLTTTVVQAMPNSPQLKPIQPKPTVMGEPFTVNPALTPAKDKKKKDKKKKDSSKELESPLTPGKVCRAEEGKSPFRDAAGDGIKVESLLNGSSESHQSRLASIKAEADKIYSFTDNAPSPSIGGSSRLDSTTPTQPLTPLHVVTQNGAEASSVKTNSPAYSDISDAGEDGEGKVDSAKSKDPEQLVKEGAKKTLFPPQPQSKDSPYYQGFESYYSPGYAQSSPGTLTSSSQAGMEGQPLKTKKDEEPESVEGKVKNDVCEEKKPELSNSSQQPSVIQQRPNMYMQSLYYNQYAYVPPYGYSDQSYHSHLLSTNTAYRQQYEEQQKRQSLEQQQQQQRGLDKKTEMGLKEREASLKEEWKQKPSIPPTLTKAPSLTDLVKSGPGKAKEPGTDPAKSVIIPKLDDSSKLPSQPPEGLKGKLGEASHLGKEASEAKTGTECGRQAEVDPILWYRQETESRMWTYVYPAKYSDIKSEDDRWKEERDRKLKEDRSRSKDSVPKEDGKESTSSDCKLPPSEESRLGSKEPRPSVHVPVSSPLTQHQSYIPYMHGYSYSQSYDPNHPSYRGMPAVMMQNYPGSYLPSSYSFSPYGSKVSGGEDADKARASPSVSCKASSESKALDILQQHASHYKSKSPTISDKNSQERDRGGCGVVGGGGSCGSVAGAGGTDRSADRPRTSPSQRLMSTHHHHHHLGYSLLPAQYNLPYAAGLSSTAIVASQQGSTPSLYPPPRR
B2: NANOG (protein, UniProt Q80Z64 1-305)
chain: MSVGLPGPHSLPSSEEASNSGNASSMPAVFHPENYSCLQGSATEMLCTEAASPRPSSEDLPLQGSPDSSTSPKQKLSSPEADKGPEEEENKVLARKQKMRTVFSQAQLCALKDRFQKQKYLSLQQMQELSSILNLSYKQVKTWFQNQRMKCKRWQKNQWLKTSNGLIQKGSAPVEYPSIHCSYPQGYLVNASGSLSMWGSQTWTNPTWSSQTWTNPTWNNQTWTNPTWSSQAWTAQSWNGQPWNAAPLHNFGEDFLQPYVQLQQNFSASDLEVNLEATRESHAHFSTPQALELFLNYSVTPPGEI
B3: NOL9 (Nucleolar protein 9) (protein, UniProt Q3TZX8 1-714)
chain: MAESEVLHRRAPSRSSWLRVRKARPHLLLSRRGRRRFGVLTRVELRRLRRRLLRAHALGGDWKQVAPAGAHVAVKCKLRARSRPAPRSPPTPSVPPAPCTASATCSLLNPRNHSTPQSRAGRPVRKVSPNVTQPVRDLGSGRVLMMLPPGEGFTFSGICRVTCVYGQLEVYGHIINQGQPPQDVFSVYTHSYLTINGVPYAEPEKSEKAIRREIRALLKPYTKLDDRNWVVRYFPPLGSIMILERMQSRFVDFLKTYKCSSYVLLQENAPVRVNSEFTTLKKIGIRRQKRKKAICLSESGLCALEELVSVSCDGCPVILLCGACDIGKSTFNRILINQLLNSIPGVDYLECDLGQTEFTPPGCVALLTITEPLLGPPYTHQRKPQRMVYYGKMNCYNDYENYIDIVKYVFRDYKREFPLIINTMGWVSDNGLRLLVDLIRVLSPNYVVQLYSDRCKFTPTLTSEYVELTDGLYTKSKIKRYRGFEIPEFGDNLEFTYEEKESSPLPVFTGHVLLSVHSEFLSSKNEKNRAKYNRIFRDLAVLGYLSQLMLPVPESLSPLHSLTPYQVPFSAVAIRVLHADVAPTHILYAVNASWVGLCRIVDDMKGYTRGPILLAQNPICDCLGFGICRGIDMDKRTYHILTPLPPEELKTVNCLLVGSISIPHCIFQNQPGPEGSVPYVTTDYNLNIPGATEKIGEREYGKAFPRHKLRQRRK
B4: LAS1L1 (LAS1 like ribosome biogenesis factor 1) (protein, UniProt A2BE28 1-776)
chain: MDRVWRAWDGQSFKENQPESPSARGIVVSWLSRAEWEQVTVYLFCDDHKLQQYALNRITVWRSRLGNELPLAVASTADLVRCKLIDAAGTLGTDELRLLYGMALVRFVNLISERKTKCSNLPLKYLAQEVNIPDWIVELRHNLTHKKMPHINECRRGCYFVLNWLQKTYWSRQLEGSLKETWELDEDQLDAEDPEEEEREIIADDVLEEIPEPQDDDKDEELAVEDDANTKGNEEVASHPEPSSRHKELYEKARELLVSYEEEQFKVLEKHRHLLQAIKVWNNLSPRVQCILEELKSISWENRDAVLDAFLDDGFLIPTFEQLAALQIEYEDGQTEVQKGEVTEPNSHKNIDLNEVLVPKPFSQFWQPLLRGLHSQTFTQALLERMFSELSTVGSTGIRPTYILRWTVELIVANTKTGRNARRFSASQWEARKSWRLFNCSATLDWPQVIESCLGSPCWASPQLLQVVFKAMGQVLPDEEQEKLLRVCSIYTQNGENGLAKAIEGSSSSSTGKAPYTLDTLHEDLQPPGTNCESEESIQQKEQGNLKDVKQEEKKENEEEEKEEEEMEEEEEEEEEEKEEEEEEQEQEEHQEEEQEEEEEEENQKVFQDQMEADVEESDDVEEEEEVDDEEEDEDDDYDDDEEEDRMEVGAFSLAQGSSVFENTRTTSRKREALQGSAWQVSSEDVRWGTFPLGRLPGQTEDPAELMLDNYDTMYLLDQPVIEHRLEPQKSKSSTLSLCCGGSNTNSSSSSSSGNMEGLLWNQGQMHGLKAGLQLF

This assay addresses T1, SPIC-green fluorescent protein (GFP) fusion protein (mouse). Briefly: affinity purification with mass spectrometry; GFP-Trap agarose beads on nuclear extract of SPIC-GFP BAC ESCs in 2iLd3; 300 mM NaCl, EtBr 0.05 mg/ml to release DNA-mediated interactions, 90 min at 4°C; label-free LC-MS/MS, three biological replicates; WT ESCs as negative control.
With “SENP3 (SUMO specific peptidase 3) (from UniProt Q9EP97 1-568)”, the binding entry was “binds”. As for “PELP1 (Proline, glutamate and leucine rich protein 1) (from UniProt Q9DBD5 1-1123)”, the entry is “binds”; as for B1, “binds”; as for B2, “binds”. With B3, the binding result was “binds”. With B4, the binding entry was “binds”.
